PMC6796842
These are yes or no findings as the source states them, for the method shown. Binding seen in cells or lysates may run through a third protein. Some results given as binding are weak or reduced against the parent protein; the word gives no strength.

By UniProt entry, the sequences of proteins in these tests, tags left out. Where a name states a change or a piece, a line headed by the entry shows the natural chain unless it says otherwise. Chains listed by the source or under a name are the forms on record and can include a tag or linker. Residues count along the entry.
GFP-fused WT human CTLA-4 in HEK293T cells (P16410, residues 36-223): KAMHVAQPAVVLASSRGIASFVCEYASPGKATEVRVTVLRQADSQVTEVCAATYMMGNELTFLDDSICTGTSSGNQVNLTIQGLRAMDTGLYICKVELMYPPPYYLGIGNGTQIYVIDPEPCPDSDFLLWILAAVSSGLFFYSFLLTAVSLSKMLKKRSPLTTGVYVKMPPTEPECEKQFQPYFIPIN
GFP-fused human CTLA-4 mutant Y201V in HEK293T cells (P16410, form named): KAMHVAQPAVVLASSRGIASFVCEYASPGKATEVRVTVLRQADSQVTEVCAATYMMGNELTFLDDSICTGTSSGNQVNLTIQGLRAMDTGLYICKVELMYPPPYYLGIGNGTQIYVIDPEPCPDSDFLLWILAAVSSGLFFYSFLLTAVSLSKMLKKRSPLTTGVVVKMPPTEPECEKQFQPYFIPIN
UniProt P50851: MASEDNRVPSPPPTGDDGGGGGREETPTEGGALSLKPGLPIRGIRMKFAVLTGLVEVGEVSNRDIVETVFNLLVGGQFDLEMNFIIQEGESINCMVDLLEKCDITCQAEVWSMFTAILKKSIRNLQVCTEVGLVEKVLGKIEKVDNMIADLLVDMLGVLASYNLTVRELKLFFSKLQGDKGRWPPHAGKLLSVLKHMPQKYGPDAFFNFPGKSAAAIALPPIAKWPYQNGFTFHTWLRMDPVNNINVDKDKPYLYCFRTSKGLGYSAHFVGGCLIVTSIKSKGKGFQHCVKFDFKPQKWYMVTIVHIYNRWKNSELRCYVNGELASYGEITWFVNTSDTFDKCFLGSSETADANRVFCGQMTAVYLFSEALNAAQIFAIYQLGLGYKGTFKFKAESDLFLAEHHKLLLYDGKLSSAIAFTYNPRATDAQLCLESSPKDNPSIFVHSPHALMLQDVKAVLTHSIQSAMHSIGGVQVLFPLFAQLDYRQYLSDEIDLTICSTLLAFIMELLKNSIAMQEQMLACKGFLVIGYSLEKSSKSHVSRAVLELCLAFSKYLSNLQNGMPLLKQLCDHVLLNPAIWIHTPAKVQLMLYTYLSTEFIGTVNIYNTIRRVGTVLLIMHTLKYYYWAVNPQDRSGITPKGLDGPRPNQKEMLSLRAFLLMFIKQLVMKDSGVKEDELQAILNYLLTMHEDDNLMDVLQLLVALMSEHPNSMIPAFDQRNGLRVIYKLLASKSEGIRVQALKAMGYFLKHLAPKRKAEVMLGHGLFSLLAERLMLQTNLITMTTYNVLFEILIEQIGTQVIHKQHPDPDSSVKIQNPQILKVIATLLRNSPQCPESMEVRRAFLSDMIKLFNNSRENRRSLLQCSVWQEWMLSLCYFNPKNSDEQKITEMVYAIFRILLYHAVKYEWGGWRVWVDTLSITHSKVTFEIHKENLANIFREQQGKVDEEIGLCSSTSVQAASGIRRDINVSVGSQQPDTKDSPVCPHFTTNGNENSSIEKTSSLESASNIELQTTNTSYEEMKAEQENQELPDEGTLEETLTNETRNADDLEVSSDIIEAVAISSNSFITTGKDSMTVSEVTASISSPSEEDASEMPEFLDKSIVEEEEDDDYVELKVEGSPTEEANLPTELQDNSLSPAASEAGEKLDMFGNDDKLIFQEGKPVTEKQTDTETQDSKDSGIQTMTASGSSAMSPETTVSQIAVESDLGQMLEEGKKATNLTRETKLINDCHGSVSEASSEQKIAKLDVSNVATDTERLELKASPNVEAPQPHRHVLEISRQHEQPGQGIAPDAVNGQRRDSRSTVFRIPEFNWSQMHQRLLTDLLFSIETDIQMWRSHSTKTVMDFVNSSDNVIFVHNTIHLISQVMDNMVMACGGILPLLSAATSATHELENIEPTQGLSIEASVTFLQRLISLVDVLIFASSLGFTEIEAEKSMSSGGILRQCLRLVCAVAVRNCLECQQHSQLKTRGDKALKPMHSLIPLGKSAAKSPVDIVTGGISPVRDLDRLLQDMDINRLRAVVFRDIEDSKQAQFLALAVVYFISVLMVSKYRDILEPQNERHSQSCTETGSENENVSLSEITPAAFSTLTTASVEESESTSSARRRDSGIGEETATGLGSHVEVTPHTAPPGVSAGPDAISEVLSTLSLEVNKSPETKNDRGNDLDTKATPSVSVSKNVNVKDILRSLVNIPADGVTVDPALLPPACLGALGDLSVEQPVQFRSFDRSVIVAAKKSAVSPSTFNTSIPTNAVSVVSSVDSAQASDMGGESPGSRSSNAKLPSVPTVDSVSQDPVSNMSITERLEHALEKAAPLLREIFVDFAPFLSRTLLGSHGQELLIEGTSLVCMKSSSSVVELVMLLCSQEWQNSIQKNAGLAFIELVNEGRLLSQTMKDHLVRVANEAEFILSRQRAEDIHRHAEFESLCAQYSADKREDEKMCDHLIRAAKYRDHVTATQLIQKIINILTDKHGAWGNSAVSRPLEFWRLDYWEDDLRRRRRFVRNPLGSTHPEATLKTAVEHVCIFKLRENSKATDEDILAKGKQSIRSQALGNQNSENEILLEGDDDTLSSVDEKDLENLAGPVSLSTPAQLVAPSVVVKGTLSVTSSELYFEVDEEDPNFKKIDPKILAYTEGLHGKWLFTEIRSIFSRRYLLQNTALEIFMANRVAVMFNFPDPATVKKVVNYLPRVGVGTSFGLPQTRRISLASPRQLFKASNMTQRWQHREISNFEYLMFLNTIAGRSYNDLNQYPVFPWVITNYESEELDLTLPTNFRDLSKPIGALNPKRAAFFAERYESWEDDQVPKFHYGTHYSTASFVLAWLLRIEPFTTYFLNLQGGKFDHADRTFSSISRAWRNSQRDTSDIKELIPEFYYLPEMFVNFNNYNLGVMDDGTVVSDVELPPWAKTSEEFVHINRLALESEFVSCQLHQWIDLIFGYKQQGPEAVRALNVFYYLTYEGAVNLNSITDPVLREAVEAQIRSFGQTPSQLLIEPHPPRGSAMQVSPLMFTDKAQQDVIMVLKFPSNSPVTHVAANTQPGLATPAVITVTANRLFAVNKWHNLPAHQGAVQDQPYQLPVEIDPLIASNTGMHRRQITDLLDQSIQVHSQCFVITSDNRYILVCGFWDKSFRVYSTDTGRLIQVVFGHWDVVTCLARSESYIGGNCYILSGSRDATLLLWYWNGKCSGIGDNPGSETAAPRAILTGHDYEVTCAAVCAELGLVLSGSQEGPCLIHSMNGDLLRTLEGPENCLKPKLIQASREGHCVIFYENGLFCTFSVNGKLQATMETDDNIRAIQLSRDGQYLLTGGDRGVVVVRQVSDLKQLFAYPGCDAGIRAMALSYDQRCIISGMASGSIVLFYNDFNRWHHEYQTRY

How the values were obtained:
[1] = biological target: GFP-fused WT human CTLA-4 in HEK293T cells (human) (UniProt P16410); test: co-IP; HEK293T cells transfected with GFP-fused WT or Y201V CTLA-4; lysis in M2 buffer; anti-GFP and protein G agarose overnight at 4 °C; immunoblot for LRBA and CTLA-4
[2] = biological target: GFP-fused human CTLA-4 mutant Y201V in HEK293T cells (human) (UniProt P16410); test: as above

lipopolysaccharide-responsive and beige-like anchor (LRBA) protein, endogenous in HEK293T cells (from UniProt P50851 1-2863)
binding [1]: binds
binding [2]: no binding
